This passage reports binding results from publication PMC11718245.

Protein sequences, listed by entry. Tags and fused reporters are not part of them.
UniProt P08047: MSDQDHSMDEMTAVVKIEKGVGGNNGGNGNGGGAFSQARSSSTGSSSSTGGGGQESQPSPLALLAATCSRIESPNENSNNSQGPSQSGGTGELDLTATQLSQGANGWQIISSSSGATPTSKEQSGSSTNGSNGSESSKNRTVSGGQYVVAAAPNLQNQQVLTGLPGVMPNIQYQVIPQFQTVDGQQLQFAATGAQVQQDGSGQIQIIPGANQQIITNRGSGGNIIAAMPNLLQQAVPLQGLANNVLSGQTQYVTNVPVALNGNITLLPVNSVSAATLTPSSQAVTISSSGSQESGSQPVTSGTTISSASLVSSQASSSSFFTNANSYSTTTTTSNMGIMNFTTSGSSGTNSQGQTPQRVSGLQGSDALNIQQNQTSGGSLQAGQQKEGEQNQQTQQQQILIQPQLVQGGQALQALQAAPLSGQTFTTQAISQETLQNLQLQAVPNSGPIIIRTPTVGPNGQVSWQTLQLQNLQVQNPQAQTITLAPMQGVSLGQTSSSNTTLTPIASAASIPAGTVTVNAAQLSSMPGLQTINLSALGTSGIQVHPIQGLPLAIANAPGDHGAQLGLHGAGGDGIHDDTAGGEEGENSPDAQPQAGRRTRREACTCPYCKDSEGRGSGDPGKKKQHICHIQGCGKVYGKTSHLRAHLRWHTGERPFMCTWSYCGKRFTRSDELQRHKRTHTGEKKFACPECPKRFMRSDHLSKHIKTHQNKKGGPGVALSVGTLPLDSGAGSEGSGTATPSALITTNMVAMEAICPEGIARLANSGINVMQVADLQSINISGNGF

The assay concerns the target FGR (human (endogenous in LoVo)) (UniProt P09769). Kind of assay: co-IP; LoVo lysates (200 mg) treated with FGR antibodies (Santa Cruz Biotechnology, sc-166079) for one night at 4 °C and Protein A Sepharose beads for three hours; immunocomplexes examined by western blotting. (In general: A western blot detects proteins with antibodies after separation by electrophoresis.)

No constants are given. Whether binding was seen depends on the method and setting. In cells and extracts the contact can be indirect. Some results given as binding are weak or reduced against the parent protein; the word gives no strength.

On to SP1 (from UniProt P08047 1-785), for which the binding result is on record as “binds”.
